{"source": "paper PMC6967774", "target": "GFP-tagged p97/VCP (Valosin Containing Protein) (UniProt P55072)", "test": "co-IP; lysate of GFP-tagged p97/VCP expressing cells in Pierce IP-lysis buffer (25 mM Tris-HCl pH 7.4, 150 mM NaCl, 1 mM EDTA, 1% NP-40, 5% glycerol) incubated with anti-GFP antibody conjugated agarose beads or unconjugated agarose beads (Chromotek) for four hours at 4°C; washed three times; western blot", "note": "These are yes or no findings as the source states them, for the method shown. In cells and extracts the contact can be indirect. Some binding calls cover weakened binding; strength is not graded here.", "data": [{"binder": "FBXL19 (protein, UniProt Q6PCT2 1-694) MGMKVPGKGESGPSALLTPPMSSSSRGPGAGARRRRTRCRRCRACVRTECGDCHFCRDMKKFGGPGRMKQSCLLRQCTAPVLPHTAVCLLCGEAGKEDTVEGEEEKFGLSLMECTICNEIVHPGCLKMGKAEGVINAEIPNCWECPRCTQEGRTSKDSGEGPGRRRADNGEEGASLGSGWKLTEEPPLPPPPPRRKGPLPAGPPPEDVPGPPKRKEREAGNEPPTPRKKVKGGRERHLKKVGGDACLLRGSDPGGPGLLPPRVLNPSQAFSSCHPGLPPENWEKPKPPLASAEGPAVPSPSPQREKLERFKRMCQLLERVPDTSSSSSDSDSDSDSSGTSLSEDEAPGEARNGRRPARGSSGEKENRGGRRAVRPGSGGPLLSWPLGPAPPPRPPQLERHVVRPPPRSPEPDTLPLAAGSDHPLPRAAWLRVFQHLGPRELCICMRVCRTWSRWCYDKRLWPRMDLSRRKSLTPPMLSGVVRRQPRALDLSWTGVSKKQLMWLLNRLQGLQELVLSGCSWLSVSALGSAPLPALRLLDLRWIEDVKDSQLRELLLPPPDTKPGQTESRGRLQGVAELRLAGLELTDASLRLLLRHAPQLSALDLSHCAHVGDPSVHLLTAPTSPLRETLVHLNLAGCHRLTDHCLPLFRRCPRLRRLDLRSCRQLSPEACARLAAAGPPGPFRCPEEKLLLKDS", "values": [{"measurement": "binding", "value": "binds"}]}]}
